This is one part of the list.
How the values were obtained:
Test in all cases: log2 fold change, soluble protein after heating vs DMSO (PISA); higher = thermal stabilisation; K562 lysate, 10 uM; active = over 0.2 and 3.5 SD of the protein, either way, in both replicates (recomputed)
erlotinib = compound: C#Cc1cccc(Nc2ncnc3cc(OCCOC)c(OCCOC)cc23)c1 [erlotinib]
How it was run: (§1)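 K562 pellets were dounce-homogenised in PBS pH 7.4 containing 1 mM MgCl2, and the crude extract, at 1 mg/mL protein, was exposed to 10 μM compound for 30 min. Aliquots were heated for 3 min across 48°C-58°C, pooled, brought to 0.5% NP-40 at 4°C and spun at 21,000xg for 90 min, with the supernatant taken as soluble protein. TMTpro 16plex LC-MS/MS with equalised channel sums quantified that protein. Values are log-two fold changes in thermal stability relative to solvent controls, taken from duplicates.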

Amino acid sequences for entries named in this document (tags omitted). A change or cut given only in a name is not applied to a line headed by its entry.
UniProt Q9UH62: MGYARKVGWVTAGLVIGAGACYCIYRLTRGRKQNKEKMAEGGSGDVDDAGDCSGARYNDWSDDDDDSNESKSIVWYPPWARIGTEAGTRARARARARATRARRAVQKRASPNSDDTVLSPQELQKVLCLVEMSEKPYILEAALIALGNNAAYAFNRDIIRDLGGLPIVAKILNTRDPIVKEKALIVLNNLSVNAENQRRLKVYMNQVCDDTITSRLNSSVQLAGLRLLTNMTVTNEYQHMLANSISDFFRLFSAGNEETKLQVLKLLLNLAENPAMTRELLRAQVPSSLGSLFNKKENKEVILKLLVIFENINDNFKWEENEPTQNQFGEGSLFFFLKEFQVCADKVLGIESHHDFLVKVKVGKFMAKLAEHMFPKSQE
UniProt Q9BPX5, whole entry, looked up: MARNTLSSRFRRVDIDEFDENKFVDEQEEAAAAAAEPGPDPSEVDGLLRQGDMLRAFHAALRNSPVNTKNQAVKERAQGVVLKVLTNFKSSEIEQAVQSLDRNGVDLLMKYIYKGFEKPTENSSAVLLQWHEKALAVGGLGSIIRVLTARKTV
UniProt P02654: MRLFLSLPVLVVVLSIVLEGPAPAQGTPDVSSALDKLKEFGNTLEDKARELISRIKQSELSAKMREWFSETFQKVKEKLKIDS
UniProt Q99767, whole entry, looked up: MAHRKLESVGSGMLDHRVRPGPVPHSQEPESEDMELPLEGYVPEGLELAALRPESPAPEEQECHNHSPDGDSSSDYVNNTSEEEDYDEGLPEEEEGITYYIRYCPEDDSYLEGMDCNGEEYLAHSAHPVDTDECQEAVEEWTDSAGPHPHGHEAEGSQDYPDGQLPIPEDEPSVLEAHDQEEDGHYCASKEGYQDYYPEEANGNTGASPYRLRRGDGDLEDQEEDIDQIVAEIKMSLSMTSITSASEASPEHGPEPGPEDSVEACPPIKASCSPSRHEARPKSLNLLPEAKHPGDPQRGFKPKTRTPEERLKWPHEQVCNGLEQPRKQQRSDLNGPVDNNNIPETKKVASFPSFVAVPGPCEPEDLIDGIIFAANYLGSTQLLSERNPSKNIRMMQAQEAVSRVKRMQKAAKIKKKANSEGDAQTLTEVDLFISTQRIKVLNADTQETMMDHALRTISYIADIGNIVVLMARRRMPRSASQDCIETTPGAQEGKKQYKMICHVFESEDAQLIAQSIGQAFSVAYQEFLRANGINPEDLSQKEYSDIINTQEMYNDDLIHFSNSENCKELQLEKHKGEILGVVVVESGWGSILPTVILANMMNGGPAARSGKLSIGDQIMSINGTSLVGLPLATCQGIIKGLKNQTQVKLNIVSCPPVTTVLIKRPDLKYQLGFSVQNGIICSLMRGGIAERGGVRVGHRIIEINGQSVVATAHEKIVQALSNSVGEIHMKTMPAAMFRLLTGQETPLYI
UniProt P07741: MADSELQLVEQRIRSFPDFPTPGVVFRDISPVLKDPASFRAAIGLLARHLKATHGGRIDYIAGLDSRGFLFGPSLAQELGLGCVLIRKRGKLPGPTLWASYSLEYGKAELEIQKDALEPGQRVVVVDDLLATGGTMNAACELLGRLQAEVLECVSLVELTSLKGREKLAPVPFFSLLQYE
UniProt P36404: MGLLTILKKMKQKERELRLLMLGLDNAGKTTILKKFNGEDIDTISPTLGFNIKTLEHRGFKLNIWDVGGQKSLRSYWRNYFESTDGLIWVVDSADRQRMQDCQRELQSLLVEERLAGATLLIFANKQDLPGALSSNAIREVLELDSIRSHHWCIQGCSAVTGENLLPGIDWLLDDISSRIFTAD
UniProt P61204: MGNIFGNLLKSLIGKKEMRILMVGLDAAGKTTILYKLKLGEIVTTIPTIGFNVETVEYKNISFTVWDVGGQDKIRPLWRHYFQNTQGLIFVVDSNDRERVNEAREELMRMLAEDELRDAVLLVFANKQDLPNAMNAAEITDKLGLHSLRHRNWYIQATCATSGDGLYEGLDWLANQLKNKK
UniProt Q96KC2: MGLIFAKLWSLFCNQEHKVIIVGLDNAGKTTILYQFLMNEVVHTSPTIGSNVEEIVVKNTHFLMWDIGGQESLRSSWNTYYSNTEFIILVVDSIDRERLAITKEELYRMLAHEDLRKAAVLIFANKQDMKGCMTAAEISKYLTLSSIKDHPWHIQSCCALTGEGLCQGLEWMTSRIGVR
UniProt Q9ULH1: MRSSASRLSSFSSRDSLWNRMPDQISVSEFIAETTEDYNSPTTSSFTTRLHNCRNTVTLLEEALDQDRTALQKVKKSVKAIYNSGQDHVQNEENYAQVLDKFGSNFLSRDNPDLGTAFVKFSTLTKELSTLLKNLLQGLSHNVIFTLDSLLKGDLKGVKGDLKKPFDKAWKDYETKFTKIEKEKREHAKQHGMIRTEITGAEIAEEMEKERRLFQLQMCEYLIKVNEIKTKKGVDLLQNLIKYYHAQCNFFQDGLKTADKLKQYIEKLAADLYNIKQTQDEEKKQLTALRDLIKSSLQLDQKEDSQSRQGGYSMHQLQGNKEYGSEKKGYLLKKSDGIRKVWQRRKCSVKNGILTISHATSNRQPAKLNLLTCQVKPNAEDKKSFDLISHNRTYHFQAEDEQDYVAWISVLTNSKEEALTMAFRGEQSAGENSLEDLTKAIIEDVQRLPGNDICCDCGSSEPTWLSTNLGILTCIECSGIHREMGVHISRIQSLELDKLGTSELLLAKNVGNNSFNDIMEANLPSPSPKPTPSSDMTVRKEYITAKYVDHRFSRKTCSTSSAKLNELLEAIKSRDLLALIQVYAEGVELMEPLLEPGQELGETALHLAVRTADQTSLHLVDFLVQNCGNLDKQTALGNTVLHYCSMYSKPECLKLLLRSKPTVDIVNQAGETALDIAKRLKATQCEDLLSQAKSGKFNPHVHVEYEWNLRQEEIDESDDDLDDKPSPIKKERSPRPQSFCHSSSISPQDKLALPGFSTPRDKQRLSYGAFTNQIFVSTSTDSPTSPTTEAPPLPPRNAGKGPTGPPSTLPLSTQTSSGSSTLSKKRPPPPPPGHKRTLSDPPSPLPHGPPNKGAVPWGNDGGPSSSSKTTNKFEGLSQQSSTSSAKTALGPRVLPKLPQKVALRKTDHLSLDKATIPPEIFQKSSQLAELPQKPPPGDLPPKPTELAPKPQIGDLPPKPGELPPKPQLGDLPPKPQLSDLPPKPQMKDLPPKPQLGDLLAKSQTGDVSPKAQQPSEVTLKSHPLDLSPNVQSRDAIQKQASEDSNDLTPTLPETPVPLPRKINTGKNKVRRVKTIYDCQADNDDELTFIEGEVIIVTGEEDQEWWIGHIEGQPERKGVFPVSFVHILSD
UniProt P15848: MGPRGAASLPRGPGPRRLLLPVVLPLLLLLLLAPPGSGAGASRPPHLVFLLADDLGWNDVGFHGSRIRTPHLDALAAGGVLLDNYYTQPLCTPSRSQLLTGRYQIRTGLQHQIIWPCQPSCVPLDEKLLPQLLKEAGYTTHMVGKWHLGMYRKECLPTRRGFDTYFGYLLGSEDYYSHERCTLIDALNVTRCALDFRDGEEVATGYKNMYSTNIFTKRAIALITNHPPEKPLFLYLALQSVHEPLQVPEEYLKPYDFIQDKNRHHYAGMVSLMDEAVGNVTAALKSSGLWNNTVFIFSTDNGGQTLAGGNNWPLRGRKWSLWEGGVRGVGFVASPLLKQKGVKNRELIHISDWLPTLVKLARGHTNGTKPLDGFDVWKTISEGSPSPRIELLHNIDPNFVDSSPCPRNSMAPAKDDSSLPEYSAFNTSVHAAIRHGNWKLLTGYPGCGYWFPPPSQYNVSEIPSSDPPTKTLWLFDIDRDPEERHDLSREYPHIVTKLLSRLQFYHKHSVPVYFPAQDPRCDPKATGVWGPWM
UniProt P13798: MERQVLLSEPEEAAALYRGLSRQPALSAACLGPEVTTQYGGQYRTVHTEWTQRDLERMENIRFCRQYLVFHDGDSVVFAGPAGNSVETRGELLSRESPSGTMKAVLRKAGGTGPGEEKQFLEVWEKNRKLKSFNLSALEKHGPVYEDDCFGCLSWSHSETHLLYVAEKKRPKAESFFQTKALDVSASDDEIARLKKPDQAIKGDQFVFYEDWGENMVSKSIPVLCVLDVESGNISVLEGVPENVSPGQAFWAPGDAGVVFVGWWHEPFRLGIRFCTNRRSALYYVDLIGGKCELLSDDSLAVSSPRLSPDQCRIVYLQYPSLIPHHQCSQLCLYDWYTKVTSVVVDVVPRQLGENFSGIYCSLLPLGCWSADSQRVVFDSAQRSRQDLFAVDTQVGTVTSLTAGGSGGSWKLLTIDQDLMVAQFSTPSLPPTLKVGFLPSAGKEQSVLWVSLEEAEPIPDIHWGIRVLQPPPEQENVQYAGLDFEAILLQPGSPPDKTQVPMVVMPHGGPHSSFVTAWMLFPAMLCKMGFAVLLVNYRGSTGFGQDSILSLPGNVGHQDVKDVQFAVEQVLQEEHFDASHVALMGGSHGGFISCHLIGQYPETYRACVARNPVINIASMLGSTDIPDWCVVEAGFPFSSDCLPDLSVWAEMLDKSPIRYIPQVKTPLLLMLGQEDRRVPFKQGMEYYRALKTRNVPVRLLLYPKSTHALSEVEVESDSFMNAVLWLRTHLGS
UniProt Q9BUR5: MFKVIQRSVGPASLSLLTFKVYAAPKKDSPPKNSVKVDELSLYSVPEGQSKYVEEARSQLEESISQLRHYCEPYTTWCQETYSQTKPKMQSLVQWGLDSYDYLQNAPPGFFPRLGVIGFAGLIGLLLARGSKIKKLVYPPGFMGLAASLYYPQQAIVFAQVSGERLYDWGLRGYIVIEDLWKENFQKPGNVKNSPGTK
UniProt Q9Y2Y0: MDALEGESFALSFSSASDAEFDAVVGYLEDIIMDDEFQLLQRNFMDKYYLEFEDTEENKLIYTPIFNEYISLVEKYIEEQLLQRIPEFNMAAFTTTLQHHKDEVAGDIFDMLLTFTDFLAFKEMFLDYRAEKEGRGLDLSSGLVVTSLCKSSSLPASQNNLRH
UniProt P53367: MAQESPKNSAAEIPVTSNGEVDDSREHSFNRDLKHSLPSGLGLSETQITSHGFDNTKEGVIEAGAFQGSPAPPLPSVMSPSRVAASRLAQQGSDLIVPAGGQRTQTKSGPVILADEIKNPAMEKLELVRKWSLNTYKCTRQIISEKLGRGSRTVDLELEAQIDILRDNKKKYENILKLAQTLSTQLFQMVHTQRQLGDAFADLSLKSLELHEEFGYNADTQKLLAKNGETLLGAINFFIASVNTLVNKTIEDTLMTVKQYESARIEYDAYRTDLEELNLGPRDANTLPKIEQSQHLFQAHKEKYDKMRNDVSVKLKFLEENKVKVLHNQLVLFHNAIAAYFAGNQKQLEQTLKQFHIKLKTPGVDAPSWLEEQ
UniProt Q92747, whole entry, looked up: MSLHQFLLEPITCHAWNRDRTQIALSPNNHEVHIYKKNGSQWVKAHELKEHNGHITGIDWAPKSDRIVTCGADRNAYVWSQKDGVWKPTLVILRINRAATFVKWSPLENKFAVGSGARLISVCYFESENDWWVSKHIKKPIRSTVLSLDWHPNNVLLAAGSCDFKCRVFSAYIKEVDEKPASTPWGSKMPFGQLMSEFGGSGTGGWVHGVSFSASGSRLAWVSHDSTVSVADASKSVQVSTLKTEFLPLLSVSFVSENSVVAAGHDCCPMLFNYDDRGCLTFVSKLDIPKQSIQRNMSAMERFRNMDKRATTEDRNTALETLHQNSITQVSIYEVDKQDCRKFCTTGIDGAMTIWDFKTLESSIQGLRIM
UniProt Q9H993: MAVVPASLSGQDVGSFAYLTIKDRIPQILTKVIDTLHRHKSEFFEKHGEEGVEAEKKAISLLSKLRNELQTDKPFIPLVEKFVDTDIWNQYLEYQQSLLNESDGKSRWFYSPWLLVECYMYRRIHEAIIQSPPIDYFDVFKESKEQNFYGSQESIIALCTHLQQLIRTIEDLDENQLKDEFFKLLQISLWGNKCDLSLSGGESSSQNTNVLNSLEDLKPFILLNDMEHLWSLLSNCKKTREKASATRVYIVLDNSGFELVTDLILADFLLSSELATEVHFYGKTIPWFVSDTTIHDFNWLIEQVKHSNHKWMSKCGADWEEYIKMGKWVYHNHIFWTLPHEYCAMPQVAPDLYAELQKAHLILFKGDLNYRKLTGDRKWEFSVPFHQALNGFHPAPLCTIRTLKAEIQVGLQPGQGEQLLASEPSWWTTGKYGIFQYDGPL
UniProt Q9NXU5: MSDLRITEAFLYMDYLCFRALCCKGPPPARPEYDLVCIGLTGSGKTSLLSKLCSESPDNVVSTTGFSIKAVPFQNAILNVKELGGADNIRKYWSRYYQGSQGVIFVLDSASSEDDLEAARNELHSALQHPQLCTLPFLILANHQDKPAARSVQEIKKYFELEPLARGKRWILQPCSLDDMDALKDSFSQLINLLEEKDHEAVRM
UniProt Q96GX9: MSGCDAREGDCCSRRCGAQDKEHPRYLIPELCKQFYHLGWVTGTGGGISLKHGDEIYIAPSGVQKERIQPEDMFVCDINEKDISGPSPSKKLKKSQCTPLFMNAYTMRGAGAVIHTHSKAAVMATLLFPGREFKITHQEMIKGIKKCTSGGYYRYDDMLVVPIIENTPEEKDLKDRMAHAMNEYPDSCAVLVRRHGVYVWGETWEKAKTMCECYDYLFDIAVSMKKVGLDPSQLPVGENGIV

[1] = compound: C/C(=N\NC(=O)C1=CC(=CC=C1)S(=O)(=O)N2CCOCC2)/C3=C(C=CC(=C3)Cl)O
How it was run: as §1

[2] = compound: C1=CC(=CC=C1C2=NC3=C(N2)C=C(C=C3)C(=O)N)OC4=CC=C(C=C4)Cl
How it was run: as §1

[3] = compound: C1=CC2=C(C=CC(=C2)/C=C\3/C(=O)NC(=NCC4=CC=CS4)S3)N=C1
How it was run: as §1

[4] = compound: C1=CC2=NC=CN=C2C=C1/C=C/3\C(=O)NC(=O)S3
How it was run: as §1

[5] = compound: C1=CC=C(C=C1)C2=NC(=C(N2)C3=CC=NC=C3)C4=CC(=C(C=C4)Cl)O
How it was run: as §1

[6] = compound: C1=CC=C2C(=C1)C3=NNC4=CC=CC(=C43)C2=O
How it was run: as §1

[7] = compound: C1CCN(C1)C(=O)NC2=CC=CC(=C2)NC3=NC=C(C(=N3)NCCC4=CN=CN4)Br
How it was run: as §1

[8] = compound: C1CN(CCC1(CC2=CC=C(C=C2)Cl)N)C3=NC=NC4=C3C=CN4
How it was run: as §1

IRAK-1-4 Inhibitor I = compound: C1COCCN1CCN2C3=CC=CC=C3N=C2NC(=O)C4=CC(=CC=C4)[N+](=O)[O-] [IRAK-1-4 Inhibitor I]
How it was run: as §1

Measured: log2 fold change

ARMCX3 (UniProt Q9UH62)
inactive: erlotinib 0.023 | [1] -0.02 | [2] -0.005 | [3] 0.009 | [4] 0.033 | [5] -0.005 | [6] -0.043 | [7] -0.016 | [8] 0.064 | IRAK-1-4 Inhibitor I 0.03

ARPC5L (UniProt Q9BPX5)
inactive: erlotinib 0.001 | [1] -0.048 | [2] 0.041 | [3] 0.007 | [4] -0.032 | [5] -0.012 | [6] -0.05 | [7] -0.011 | [8] 0.031 | IRAK-1-4 Inhibitor I -0.012

APOC1 (UniProt P02654)
inactive: erlotinib 0.068 | [1] -0.098 | [2] -0.006 | [3] 0.071 | [4] -0.156 | [5] 0.001 | [6] 0.054 | [7] -0.075 | [8] 0.024 | IRAK-1-4 Inhibitor I 0.001

ARL6IP1 (UniProt Q15041)
inactive: erlotinib -0.025 | [1] 0.043 | [2] 0.038 | [3] -0.026 | [4] -0.087 | [5] -0.032 | [6] 0.022 | [7] 0.02 | [8] -0.01 | IRAK-1-4 Inhibitor I 0.035

APBA2 (UniProt Q99767)
inactive: erlotinib -0.03 | [1] 0.416 | [2] 0.015 | [3] 0.005 | [4] -0.156 | [5] 0.009 | [6] -0.021 | [7] -0.003 | [8] -0.024 | IRAK-1-4 Inhibitor I -0.024

Reprinted from the entries so far (2 entries):
ARPC5L (UniProt Q9BPX5)
inactive: erlotinib 0.001 | [1] -0.048 | [2] 0.041 | [3] 0.007 | [4] -0.032 | [5] -0.012 | [6] -0.05 | [7] -0.011 | [8] 0.031 | IRAK-1-4 Inhibitor I -0.012

APOC1 (UniProt P02654)
inactive: erlotinib 0.068 | [1] -0.098 | [2] -0.006 | [3] 0.071 | [4] -0.156 | [5] 0.001 | [6] 0.054 | [7] -0.075 | [8] 0.024 | IRAK-1-4 Inhibitor I 0.001

The list goes on:

ARHGAP21 (UniProt Q5T5U3)
inactive: erlotinib -0.013 | [1] -0.182 | [2] -0.025 | [3] -0.098 | [4] -0.214 | [5] -0.018 | [6] -0.137 | [7] -0.118 | [8] -0.018 | IRAK-1-4 Inhibitor I 0.056

AP4S1 (UniProt Q9Y587)
inactive: erlotinib -0.052 | [1] 0.043 | [2] -0.004 | [3] 0.026 | [4] 0.033 | [5] 0.018 | [6] -0.211 | [7] 0.071 | [8] 0.048 | IRAK-1-4 Inhibitor I -0.027

APRT (UniProt P07741)
inactive: erlotinib 0.023 | [1] 0.005 | [2] 0.007 | [3] -0.025 | [4] -0.001 | [5] 0.005 | [6] -0.003 | [7] 0.015 | [8] 0.04 | IRAK-1-4 Inhibitor I 0.023

ARL2 (UniProt P36404)
inactive: erlotinib 0.004 | [1] 0.058 | [2] 0 | [3] -0.005 | [4] -0.007 | [5] -0.006 | [6] -0.035 | [7] 0.003 | [8] 0.005 | IRAK-1-4 Inhibitor I 0.015

ARID3B (UniProt Q8IVW6)
inactive: erlotinib 0.01 | [1] -0.004 | [2] 0.029 | [3] 0.004 | [4] 0.004 | [5] 0 | [6] -0.01 | [7] -0.036 | [8] 0.071 | IRAK-1-4 Inhibitor I -0.013

ARPIN isoform 2 (UniProt Q7Z6K5)
inactive: erlotinib 0.191 | [1] 0.235 | [2] -0.036 | [3] -0.172 | [4] -0.127 | [5] -0.005 | [6] -0.068 | [7] -0.149 | [8] 0.125 | IRAK-1-4 Inhibitor I 0.043

ARF3 (UniProt P61204)
inactive: erlotinib -0.01 | [1] -0.015 | [2] 0.01 | [3] 0.009 | [4] 0.002 | [5] 0.005 | [6] 0.011 | [7] -0.014 | [8] 0.006 | IRAK-1-4 Inhibitor I 0.029

ARL5B (UniProt Q96KC2)
inactive: erlotinib 0.116 | [1] -0.061 | [2] 0.106 | [3] -0.05 | [4] -0.052 | [5] -0.001 | [6] 0.002 | [7] -0.088 | [8] -0.002 | IRAK-1-4 Inhibitor I 0.022

ARHGEF11 isoform 2 (UniProt O15085)
inactive: erlotinib 0.093 | [1] -0.1 | [2] 0.024 | [3] 0.159 | [4] 0.009 | [5] 0.024 | [6] 0.017 | [7] 0.058 | [8] -0.128 | IRAK-1-4 Inhibitor I -0.019

ASAP1 isoform 2 (UniProt Q9ULH1)
inactive: erlotinib 0.002 | [1] 0.004 | [2] 0.026 | [3] -0.016 | [4] -0.016 | [5] 0.026 | [6] -0.045 | [7] -0.008 | [8] 0.023 | IRAK-1-4 Inhibitor I -0.004

ARSB (UniProt P15848)
inactive: erlotinib 0.038 | [1] 0.008 | [2] 0.054 | [3] 0.025 | [4] 0.026 | [5] 0.013 | [6] 0.023 | [7] 0.034 | [8] 0.006 | IRAK-1-4 Inhibitor I -0.021

API5 (UniProt Q9BZZ5)
inactive: erlotinib -0.003 | [1] 0.033 | [2] 0.007 | [3] 0.007 | [4] -0.001 | [5] -0.012 | [6] 0.029 | [7] -0.003 | [8] 0.013 | IRAK-1-4 Inhibitor I 0.008

APEH (UniProt P13798)
inactive: erlotinib -0.004 | [1] 0.005 | [2] -0.004 | [3] 0.02 | [4] 0.013 | [5] -0.003 | [6] 0.005 | [7] 0.002 | [8] -0.002 | IRAK-1-4 Inhibitor I -0.008

APOO (UniProt Q9BUR5)
inactive: erlotinib 0.033 | [1] 0.034 | [2] -0.039 | [3] -0.041 | [4] 0.019 | [5] -0.006 | [6] 0.068 | [7] 0.019 | [8] -0.083 | IRAK-1-4 Inhibitor I 0.018

ARL2BP (UniProt Q9Y2Y0)
inactive: erlotinib -0.032 | [1] -0.049 | [2] -0.028 | [3] 0.014 | [4] 0.056 | [5] -0.017 | [6] -0.021 | [7] 0.034 | [8] 0.04 | IRAK-1-4 Inhibitor I 0.044

ARFIP1 (UniProt P53367)
inactive: erlotinib -0.014 | [1] 0.116 | [2] 0.483 | [3] 0.043 | [4] -0.015 | [5] 0.014 | [6] -0.027 | [7] -0.06 | [8] -0.031 | IRAK-1-4 Inhibitor I 0.001

ARL8B (UniProt Q9NVJ2)
inactive: erlotinib -0.04 | [1] -0.026 | [2] 0.04 | [3] 0.029 | [4] 0.004 | [5] -0.029 | [6] -0.032 | [7] -0.003 | [8] 0.024 | IRAK-1-4 Inhibitor I 0.04

ARPC1A (UniProt Q92747)
inactive: erlotinib -0.028 | [1] -0.075 | [2] 0.033 | [3] 0.03 | [4] 0.006 | [5] -0.015 | [6] 0.023 | [7] -0.026 | [8] -0.009 | IRAK-1-4 Inhibitor I 0.037

ARFRP1 (UniProt Q13795)
inactive: erlotinib 0.047 | [1] 0.032 | [2] 0.049 | [3] -0.042 | [4] -0.04 | [5] -0.036 | [6] 0.001 | [7] -0.08 | [8] -0.24 | IRAK-1-4 Inhibitor I 0.042

APOBR (UniProt Q0VD83)
inactive: erlotinib -0.017 | [1] 0.034 | [2] 0 | [3] -0.02 | [4] 0.014 | [5] 0.011 | [6] -0.004 | [7] 0.012 | [8] -0.012 | IRAK-1-4 Inhibitor I 0.053

ARMT1 (UniProt Q9H993)
inactive: erlotinib 0 | [1] -0.018 | [2] 0 | [3] 0.014 | [4] 0.017 | [5] 0.005 | [6] -0.038 | [7] -0.021 | [8] 0.026 | IRAK-1-4 Inhibitor I -0.013

ARL15 (UniProt Q9NXU5)
inactive: erlotinib -0.035 | [1] 0.004 | [2] -0.009 | [3] 0.011 | [4] 0.079 | [5] -0.033 | [6] 0.005 | [7] 0.004 | [8] -0.031 | IRAK-1-4 Inhibitor I 0.038

ARID4B (UniProt Q4LE39)
inactive: erlotinib 0.015 | [1] -0.058 | [2] 0.093 | [3] 0.045 | [4] -0.033 | [5] 0.014 | [6] -0.014 | [7] -0.061 | [8] 0.01 | IRAK-1-4 Inhibitor I -0.002

APIP (UniProt Q96GX9)
inactive: erlotinib -0.024 | [1] -0.077 | [2] -0.014 | [3] 0.004 | [4] 0 | [5] -0.002 | [6] -0.026 | [7] 0.03 | [8] 0.078 | IRAK-1-4 Inhibitor I -0.012

ARPC4 isoform 3 (UniProt P59998)
inactive: erlotinib -0.025 | [1] -0.354 | [2] -0.021 | [3] 0.008 | [4] -0.013 | [5] -0.023 | [6] 0.052 | [7] -0.002 | [8] 0.012 | IRAK-1-4 Inhibitor I -0.002
